Source: ChEMBL document CHEMBL3988442, “University of Dundee, Small-Polar-MMV Screening Library” (2021).

A: 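Whole-cell assay for inhibitors of Mycobacterium tuberculosis growth, labelled Cornell in the record; the read-out is not stated. The concentration is filed as 10 mM, unlikely as a test dose, so the dose is not known. The record gives no direction; compounds strong in two other growth screens of this library score well above the rest, so higher reads as stronger inhibition. Of about 53,000 compounds tested this way, about 900 (1.7%) reached 50% or more in at least one test.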
B: 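Assay on Mycobacterium tuberculosis, filed only as a heat shock assay from Cornell; the read-out is not stated. The concentration is filed as 10 mM, unlikely as a test dose, so the dose is not known. Direction is inferred from retests: higher values go with stronger inhibition. Size under these conditions: about 69,000 compounds, about 930 of them at 50% or above in at least one test.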

Each number is a percent effect as filed.
The record does not define 0% and 100%; most values in the screen are far below 50% and negative numbers occur (in some assays of this library far below -100).
Compounds were drawn at random from those tested, without regard to their results.
A dash means the value is not listed here; it may have been measured.

COc1cc2nc(NCc3scnc3C)nc(N)c2cc1OC read A: 13.16%; B: -7.001%.
CCSc1cc(C(=O)NCCNC(=O)N(C)C)ccn1 read A: 21.02%; B: 5.752%.
Cc1nc(C2(NCc3ccc(C#N)cc3F)CCCCC2)no1 read A: 0.142%; B: 21.53%.
O=C(CC1C=CCC1)N1CCc2ncnc(NCc3ccon3)c2CC1 (stereo not shown) read B: -5.437%.
COCc1noc(-c2ccc(N(C)Cc3ncccc3C)nc2)n1 read A: 3.239%; B: -5.496%.
O=C(O)C(F)(F)F.[H][C@@]12CCN(c3nncs3)C[C@]1([H])O[C@@H](C(=O)NCC1CCOCC1)C2 read B: -22.15%.
c1ccc(-c2nnn3c2COC(CNCC2CC2)C3)cc1 (stereo not shown) read A: 14.15%; B: 17.18%.
CC[C@H]1N(Cc2ccc(OC)cc2)CCC[C@]12CCC(=O)N2C read A: 12.32%; B: 14.06%.
O=C(c1ccc(O)c(Cl)c1)N(Cc1ccncc1)C1CC1 read A: 18.18%; B: 4.431%.
CNS(=O)(=O)c1ccc(CNC(=O)N(C)CC(O)COC)cc1 (stereo not shown) read A: -20.9%; B: -1.168%.
O=C1C(NCc2cccc(O)c2)CCN1Cc1ccccc1 (stereo not shown) read A: 26.84%; B: -26.69%.
CCn1ncnc1C(C)NC(=O)Cc1cc2c(cc1Cl)OCCO2 (stereo not shown) read A: -20.06%; B: -29.07%.
CCCC(C)N(C)C(=O)c1nc(S(C)(=O)=O)n2ccccc12 (stereo not shown) read B: 10.09%.
N#Cc1ccccc1N1CC2(CCCCN2CC2CC2)CC1=O.O=C(O)C(F)(F)F (stereo not shown) read A: -49.02%; B: 22.27%.
O=C(NC1CCN(c2ccccc2Br)C1)c1c[nH]nn1 (stereo not shown) read A: -26.66%; B: 7.195%.
CCN(CCn1cccn1)C(=O)CN1C(=O)OC[C@@H]1C(C)C read A: 5.923%; B: -3.149%.
O=C(O)C(F)(F)F.O=C(O)C(F)(F)F.[H][C@@]12COC[C@]1(COCC1CC1)CN(Cc1cccnc1OC)C2 read B: -11.43%.
Cl.Cl.O=C([C@@H]1CSCN1)N1CCC2(CC1)CNCc1ccccc12 read A: 11.51%; B: -17.68%.
COCCN(Cc1ccc(C)o1)C(=O)Nc1ncc(C)s1 read A: 1.661%; B: -8.14%.
CC1(C)[C@H](Cc2cc(CO)on2)C[C@@H]1NCc1ccc(CO)o1 read A: -27.28%; B: -27.43%.
O=C(O)C(F)(F)F.[H][C@@]12COC[C@]1(CNC(=O)COC)CN(c1ncc(F)cn1)C2 read A: -2.176%; B: -0.3167%.
[H][C@]12CCN(Cc3cnc(NCc4ccccc4)nc3)C[C@]([H])(CC1)N2 read A: 1.124%; B: -17.1%.
Cc1nc(C)n(CC2CCCN2Cc2ccc(F)cc2C#N)n1 (stereo not shown) read A: -11.4%; B: -19.91%.
CCc1n[nH]c(C2CN(C(=O)c3ccnc(N(C)C)c3)CCO2)n1 (stereo not shown) read B: -13.69%.
CC(NC(=O)NCCN1CCCCCC1=O)c1nncn1C (stereo not shown) read A: 22.78%; B: 0.7477%.
Cc1cccc(S(=O)(=O)NCC(C)(C)CC(C)O)c1C#N (stereo not shown) read B: -7.167%.
CCOc1ccc(C#N)cc1NCC(=O)Nc1cc(C)no1 read A: 4.729%; B: 15.74%.
Cc1nc(-c2ccncc2)ncc1C(C)NC(=O)CN1CCCC1=O (stereo not shown) read A: -24.16%; B: 11.16%.
CCOCCCNC(=O)Nc1ccc(F)c(C(N)=O)c1 read B: -16.35%.
CCC[C@H]1CN(S(=O)(=O)c2c(C)noc2C)C[C@@H]1N read A: 4.334%; B: -8.27%.
Cc1nn(C)c(N(C)C)c1CNCc1cccc(CN(C)C(C)C)c1 read A: 8.875%; B: -2.462%.
CCOc1cccc(CN2CCCn3nc(CNS(C)(=O)=O)cc3C2)c1 read B: 18.09%.
COc1ccc(S(=O)(=O)N2CCc3ccc(Cl)cc32)cc1C(=O)O read A: -50.54%; B: -5.537%.
O=C(c1cc(C2CCCC2)no1)N1CCCCC1 read A: 0.2494%; B: 37.55%.
CC1CN(c2ccc(CNC(=O)NCCn3ccnc3)cn2)CCO1 (stereo not shown) read A: -6.173%; B: -2.135%.
CCn1c(CN2CCOC(Cn3cccn3)C2)nc2c(F)cccc21 (stereo not shown) read A: 18.86%; B: -1.928%.
N[C@H]1CC[C@@H](Nc2nccc(CCC(F)(F)F)n2)CC1 read A: 9.722%; B: 3.972%.
O=C(O)C(F)(F)F.[H][C@@]12CCCO[C@]1([H])[C@H](NC(=O)CC1CC1)CN(Cc1csc(C)n1)C2 read A: 20.22%; B: -9.377%.
COCCNc1nc2c(c(NCC3CCOC3)n1)CCNCC2 (stereo not shown) read A: -13.78%; B: 12.11%.
Cn1c(CCN2CCN(CCc3ccccc3)CC2)nc2ccccc21 read A: 76.94%; B: 5.82%.
[H][C@]12CC[C@@]3(N=C(CC)N(C)C3=O)[C@@]1([H])CN(C(=O)Nc1ccccc1)C2 read A: 21.97%; B: 2.772%.
c1ncc2c(n1)CN(CC1CCCCO1)CC2 (stereo not shown) read A: -25.01%; B: -1.747%.
CC(C)c1nn(C)c(N2CCOCC2)c1CNCCC(=O)N(C)C read B: -8.666%.
COC[C@@H]1CCC[C@]12CN(Cc1cccc(C)n1)CCO2.O=C(O)C(F)(F)F.O=C(O)C(F)(F)F read B: 2.167%.
Cl.Fc1cccc(F)c1Cn1c(C2CCCNC2)cc2cccnc21 (stereo not shown) read A: 30.15%; B: -17.27%.
O=C(O)C(F)(F)F.O=C1N(Cc2cccnc2)CCC12CCCN(c1ncc(F)cn1)C2 (stereo not shown) read A: 20.41%; B: 4.445%.

Some entries from above, unchanged:

SMILES	A	B
CNS(=O)(=O)c1ccc(CNC(=O)N(C)CC(O)COC)cc1 (stereo not shown)	-20.9	-1.168
CC(C)c1nn(C)c(N2CCOCC2)c1CNCCC(=O)N(C)C	-	-8.666
Cl.Cl.O=C([C@@H]1CSCN1)N1CCC2(CC1)CNCc1ccccc12	11.51	-17.68
CCN(CCn1cccn1)C(=O)CN1C(=O)OC[C@@H]1C(C)C	5.923	-3.149